Laboratory results reported in PMC9262583.
Results are given in words; binding and its absence hold for the method and conditions named. Binding seen in cells or lysates may run through a third protein. Here binding means that the protein was enriched with, or labelled near, the bait; the list need not be complete. Sequences can lack the tags named with a protein.

Chains of the proteins cited; added tags and fusions are not shown.
UniProt Q9NFU0: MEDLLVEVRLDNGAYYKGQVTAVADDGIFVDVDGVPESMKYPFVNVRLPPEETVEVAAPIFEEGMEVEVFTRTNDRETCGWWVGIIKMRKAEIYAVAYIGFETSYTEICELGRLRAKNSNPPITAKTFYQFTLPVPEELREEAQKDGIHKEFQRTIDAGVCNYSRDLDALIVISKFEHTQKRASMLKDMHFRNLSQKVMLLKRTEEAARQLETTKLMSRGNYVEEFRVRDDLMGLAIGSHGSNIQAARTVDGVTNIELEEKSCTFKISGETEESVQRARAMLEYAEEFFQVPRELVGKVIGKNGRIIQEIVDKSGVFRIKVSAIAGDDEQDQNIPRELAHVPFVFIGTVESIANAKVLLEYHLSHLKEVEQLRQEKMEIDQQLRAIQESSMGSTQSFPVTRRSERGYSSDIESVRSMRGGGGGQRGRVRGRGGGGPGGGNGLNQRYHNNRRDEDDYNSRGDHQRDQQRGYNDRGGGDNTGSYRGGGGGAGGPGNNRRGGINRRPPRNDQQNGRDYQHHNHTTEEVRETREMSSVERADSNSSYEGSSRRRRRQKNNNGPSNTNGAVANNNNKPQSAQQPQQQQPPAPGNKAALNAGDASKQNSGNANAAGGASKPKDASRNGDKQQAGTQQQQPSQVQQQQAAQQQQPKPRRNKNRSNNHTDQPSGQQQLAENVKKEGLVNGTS

T1: GFP-tagged Glorund (GFP-Glo) (Drosophila) (UniProt Q9VGH5)
T1 sequence: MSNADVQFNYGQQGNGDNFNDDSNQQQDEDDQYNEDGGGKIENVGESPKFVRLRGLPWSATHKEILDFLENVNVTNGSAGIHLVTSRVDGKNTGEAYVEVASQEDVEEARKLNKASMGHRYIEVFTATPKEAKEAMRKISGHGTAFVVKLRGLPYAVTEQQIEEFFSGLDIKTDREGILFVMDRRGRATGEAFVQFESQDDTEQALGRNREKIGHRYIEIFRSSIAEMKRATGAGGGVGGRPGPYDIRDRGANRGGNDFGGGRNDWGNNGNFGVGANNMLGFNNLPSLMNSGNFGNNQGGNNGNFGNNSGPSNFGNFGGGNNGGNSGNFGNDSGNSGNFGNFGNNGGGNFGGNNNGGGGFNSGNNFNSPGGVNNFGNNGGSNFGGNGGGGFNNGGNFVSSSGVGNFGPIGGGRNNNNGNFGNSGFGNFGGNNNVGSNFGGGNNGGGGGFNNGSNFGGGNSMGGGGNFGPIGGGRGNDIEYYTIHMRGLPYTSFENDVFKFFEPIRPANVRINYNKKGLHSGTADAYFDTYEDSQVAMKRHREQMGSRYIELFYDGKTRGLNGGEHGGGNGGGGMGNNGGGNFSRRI

B1: Caprin (protein, UniProt Q9I7D3 1-961)
chain: MPSAANTATVTAAIATTVAASASNTNNNSVSKEKRSSIISLGGSVIPGTAVAAGAGVATTNGQSNSSAAATADGSQTDLASSNNNGNAAKSKANAVSAAAVVPEPYNPLKQLLVTIEHKIRNLEKRKTKLESYRAIQSSGKELSGDQASAVAKYDAVLANLEFARELAKHIQQQSKEAEKEQKKQARKDNLAKTIAETAKIREVLIIQNVLNCFNDDQVRSDFLNGENGAKKLENTELELLEKFFIETQTRRPETADDVSFIATAQKSAELFYSTINARPKSFGEVSFEKLRSLFQQIQDSGYLDKYYLVPLAENAVANSTDSGTGSGDGESGDLLNDGSGELDAELPSEPSARNSLEEGLDKLHLGVQAELDQHQSYQQQQERPSHLLEPQHQRAPSLEHQQNSMVQQVSTQVYQAAPQAGGTTTPVHVLYAPAPPAQQQPQQPPPHPHQLLSSPVNLQALQTGTAAPPAQQQQPHPTHFAPNVRAVEQNYFKQPPQHPQGPGIQAPQTPQQQQFMQHSRPLAEVLGTGRFHFLQDSELDNPEALAPPPPTNQGLVFEQQPQQPNHVEEPTQAILTLTFTNQSFPSQQPQPQQQGPQQQQQLFSPVLIHEQRQQPPQQQPQPMLIMPRLPTQQPQQPAPQGIGMQAGDVTSGFSYENAVVSYEQQIQQQLKQQQQQQQQQQQNLQQLDEPSSVNSSSSVGAGGDVENNEWHARNNDTNAAATAALTNVLKGETTQATPPAPPTKWSSEMNAMSSAASNGSSNTSHKQEWATPRDHSTGGGNSGYADNNESNNHWNNSQGDGRRNSGNYQRRGGDRDNRDRDQGGRGDERRNGGDRGNYRSRQYGNSSNTNGRNSGNSSGVYFRNNESGNGGGNNYYQNGGGGGGTYNKESRYESSGGGGGSYRGQRGGNQQRNVNGSYGGGRPMGDRGRGGAGNQGGGGGGYINRQNQSQRMPLGLENKN

Target: T1, GFP-tagged Glorund (GFP-Glo) (Drosophila)
Experiment: affinity purification with mass spectrometry; GFP-Trap_A immunoprecipitation of GFP-Glo from RNase-treated late-ovary extract, LC-MS/MS; native IP (against MCP-GFP control) and DSP-crosslinked IP washed with 1 M NaCl (against un-crosslinked control); hits common to both, a single experiment for each condition

binding, binds:
eIF4E (Drosophila (endogenous in late-ovaries))
Drosophila fragile X mental retardation protein (dFMRP), endogenous (from UniProt Q9NFU0 1-684)
B1
